Experimental data reported in the supplement of paper PMC9454738.
± gives the standard deviation of the averaged measurements. The list shows a part of the results. This data set is noisy: repeats of one test often differ as much as different tests do.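 Triple-negative MDA-MB-231 breast cancer cells and their brain-metastatic MDA-MB-231BRM derivative each stably expressed empty vector, full-length GLI1 or truncated tGLI1. CellTiter-Blue measured viability at 48 h relative to 1% DMSO vehicle. Compounds reducing viability 20% more in tGLI1 cells than in vector and GLI1 cells counted as tGLI1-selective.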

What was measured:
Assay in all cases: cell viability relative to vehicle (DMSO) control (fraction); higher = more viable cells (less growth inhibition)
Conditions in all cases: treatment time 48 h
MDA-MB-231 GLI1 = system: MDA-MB-231 GLI1
MDA-MB-231 Vector = system: MDA-MB-231 Vector
MDA-MB-231 tGLI1 = system: MDA-MB-231 tGLI1
MDA-MB-231BRM GLI1 = system: MDA-MB-231BRM GLI1
MDA-MB-231BRM Vector = system: MDA-MB-231BRM Vector
MDA-MB-231BRM tGLI1 = system: MDA-MB-231BRM tGLI1

Compound	cell viability (MDA-MB-231 GLI1; 0.05 µM)	cell viability (MDA-MB-231 GLI1; 0.5 µM)	cell viability (MDA-MB-231 GLI1; 5 µM)	cell viability (MDA-MB-231 Vector; 0.05 µM)	cell viability (MDA-MB-231 Vector; 0.5 µM)	cell viability (MDA-MB-231 Vector; 5 µM)	cell viability (MDA-MB-231 tGLI1; 0.05 µM)	cell viability (MDA-MB-231 tGLI1; 0.5 µM)	cell viability (MDA-MB-231 tGLI1; 5 µM)	cell viability (MDA-MB-231BRM GLI1; 0.05 µM)	cell viability (MDA-MB-231BRM GLI1; 0.5 µM)	cell viability (MDA-MB-231BRM GLI1; 5 µM)	cell viability (MDA-MB-231BRM Vector; 0.05 µM)	cell viability (MDA-MB-231BRM Vector; 0.5 µM)	cell viability (MDA-MB-231BRM Vector; 5 µM)	cell viability (MDA-MB-231BRM tGLI1; 0.05 µM)	cell viability (MDA-MB-231BRM tGLI1; 0.5 µM)	cell viability (MDA-MB-231BRM tGLI1; 5 µM)
Cn1sc(=O)n(Cc2ccccc2)c1=O	1.13	1.48	0.719	1.44	1.42	0.752	1.29	1.39	0.683	0.934	0.929	0.944	1	1.05	1.06	1	0.961	0.91
COc1cc(Nc2c(C#N)cnc3cc(OCCCN4CCN(C)CC4)c(OC)cc23)c(Cl)cc1Cl [Bosutinib (SKI-606)]	1.02 ± 0.51	1.08 ± 0.097	0.468 ± 0.55	1.27 ± 0.44	0.963 ± 0.34	0.454 ± 0.39	0.993 ± 0.48	1.048 ± 0.0092	0.382 ± 0.48	0.934 ± 0.06	0.876 ± 0.083	0.985 ± 0.24	0.936 ± 0.018	0.949 ± 0.019	0.993 ± 0.15	0.981 ± 0.039	0.905 ± 0.047	0.952 ± 0.075
CCc1nc(-c2cccc(C)c2)c(-c2ccnc(NC(=O)c3ccccc3)c2)s1	1.3	1.49	0.899	1.33	1.43	1.23	1.32	1.41	1.21	0.912	0.832	0.746	1.02	0.889	0.708	0.955	0.88	0.695
C[C@H]1[C@H](C)CC[C@]2(C(=O)O)CC[C@]3(C)C(=CC[C@@H]4[C@@]5(C)C[C@@H](O)[C@H](O)[C@@](C)(CO)[C@@H]5CC[C@]43C)[C@H]12 [Asiatic Acid]	1.04	1.17	1.12	1.09	1.29	1.43	1.33	1.11	0.962	1.07	1.04	1	1.04	1.1	0.976	1.1	1	0.952
O=C(c1ccc(/C=C/c2n[nH]c3ccccc23)cc1)N1CCNCC1	1.43	1.09	1.06	1.98	1.02	0.776	1.36	1.11	0.874	1.12	1.02	0.784	1.19	0.941	0.856	0.505	0.932	0.831
CC1(C)CNc2cc(NC(=O)c3cccnc3NCc3ccncc3)ccc21 [Motesanib Diphosphate (AMG-706)]	1.28	1.54	0.93	0.9	0.91	0.752	0.842	1.41	1.07	0.972	0.968	0.958	0.879	0.879	0.919	0.96	0.934	0.946
C=CC(=O)Nc1ccc2ncnc(Nc3ccc(OCc4cccc(F)c4)c(Cl)c3)c2c1	1.05	0.43	-0.21	1.69	1.09	0.339	0.988	1.05	0.408	1.19	1.01	0.973	1.19	0.984	1.08	1.02	1.08	0.924
CN1CC[C@H](c2c(O)cc(O)c3c(=O)cc(-c4ccccc4Cl)oc23)[C@H](O)C1 [Flavopiridol (Alvocidib)]	0.261	0.229	0.217	0.57	0.249	0.254	0.23	0.189	0.171	1.2	1.19	0.953	1.19	1.07	0.971	0.968	0.6	0.855
NC(=O)c1cnc(N[C@@H]2CCCC[C@@H]2N)nc1Nc1cccc(-n2nccn2)c1	2.23	2.95	0.57	1.45	1.08	0.222	1.35	1.48	0.221	0.828	0.766	0.634	0.92	0.784	0.705	1.17	1.05	0.978
COc1cc2ncnc(Oc3ccc(CC(=O)Nc4cnn(C(C)C)c4)cc3)c2cc1OC	1.43	1.67	1.15	1.27	1.49	1.29	1.39	1.43	1.38	1.05	0.961	0.668	1.11	1.06	0.968	0.993	1.04	0.905
Cc1cc(C)nc(NS(=O)(=O)c2ccc(NC(=S)NC(=O)COc3ccc(Br)cc3Cl)cc2)n1	1.5	1.64	1.18	1.31	1.46	1.39	1.5	1.42	1.1	1.09	0.979	0.931	1.18	0.979	0.988	1.03	1.07	0.993
CCOc1cc2ncc(C#N)c(Nc3ccc(F)c(Cl)c3)c2cc1NC(=O)/C=C/CN(C)C [Pelitinib (EKB-569)]	1.32	1.27	-0.023	1.94	1.19	0.0704	1.15	1.21	0.0146	0.912	1.06	0.747	1.12	0.95	0.523	1.02	1.09	0.674
O=C1NC(=O)/C(=C/c2ccc(-c3ccc(F)cc3O)o2)S1	1.25	1.44	0.816	1.24	1.36	0.591	1.37	1.3	1.15	0.988	1.07	1.13	1.04	1.15	1.16	1.06	1.1	1.11
COc1ccc(CNC(=O)Nc2ncc([N+](=O)[O-])s2)cc1	1.15	1.76	1.18	0.592	0.648	0.597	0.684	0.694	0.758	0.5	0.527	0.428	0.558	0.458	0.412	0.63	0.666	0.655
C=CC(=O)Nc1cccc(Nc2nc(Nc3ccc(N4CCN(C(C)=O)CC4)cc3OC)ncc2C(F)(F)F)c1	1.29	1.53	0.667	1.44	1.36	0.604	1.48	1.29	0.775	0.976	0.913	0.814	1.1	0.975	0.91	0.968	0.951	0.684
O=C(NC[C@H](O)CO)c1ccncc1Nc1ccc(I)cc1F	0.996	0.779	0.804	1.34	0.633	0.55	0.881	0.197	0.658	1.19	1.13	0.924	0.727	1.16	0.961	1.18	0.624	0.954
Nc1nc(F)nc2c1ncn2[C@@H]1O[C@H](COP(=O)(O)O)[C@@H](O)[C@@H]1O [Fludarabine Phosphate (Fludara)]	1.07	1.05	1.15	1.06	1.03	1.05	1.03	1.08	0.902	0.741	0.173	-0.00292	0.66	0.221	0.0298	0.72	0.243	0.0566
CN1CCN(c2ccc(Nc3cc(-c4cccc(-n5ccc6cc(C7CC7)cc(F)c6c5=O)c4CO)cn(C)c3=O)nc2)CC1	1.2	1.62	0.726	1.34	1.42	0.839	1.59	1.4	0.991	1.04	0.949	0.876	1.13	1.03	0.983	0.986	0.939	0.851
COc1cc2c(cc1O)CC[C@@H]1[C@@H]2CC[C@]2(C)[C@@H](O)CC[C@@H]12 [2-Methoxyestradiol]	0.984	0.508	0.131	1.05	0.195	-0.00976	1.03	0.365	0.00869	1.08	0.908	0.732	1.07	0.992	0.843	1.04	0.99	0.832
Cc1cc(F)c(Nc2ncnc3cc(OCc4ccccc4)ccc23)cc1O	0.909	1.15	0.599	0.994	1.12	0.825	0.915	1.13	0.568	0.931	0.984	1.06	1.03	1.04	1.05	1.05	0.96	1.09

Looked up by structure from above:
Compound	cell viability (MDA-MB-231 GLI1; 0.05 µM)	cell viability (MDA-MB-231 GLI1; 0.5 µM)	cell viability (MDA-MB-231 GLI1; 5 µM)	cell viability (MDA-MB-231 Vector; 0.05 µM)	cell viability (MDA-MB-231 Vector; 0.5 µM)	cell viability (MDA-MB-231 Vector; 5 µM)	cell viability (MDA-MB-231 tGLI1; 0.05 µM)	cell viability (MDA-MB-231 tGLI1; 0.5 µM)	cell viability (MDA-MB-231 tGLI1; 5 µM)	cell viability (MDA-MB-231BRM GLI1; 0.05 µM)	cell viability (MDA-MB-231BRM GLI1; 0.5 µM)	cell viability (MDA-MB-231BRM GLI1; 5 µM)	cell viability (MDA-MB-231BRM Vector; 0.05 µM)	cell viability (MDA-MB-231BRM Vector; 0.5 µM)	cell viability (MDA-MB-231BRM Vector; 5 µM)	cell viability (MDA-MB-231BRM tGLI1; 0.05 µM)	cell viability (MDA-MB-231BRM tGLI1; 0.5 µM)	cell viability (MDA-MB-231BRM tGLI1; 5 µM)
COc1cc(Nc2c(C#N)cnc3cc(OCCCN4CCN(C)CC4)c(OC)cc23)c(Cl)cc1Cl [Bosutinib (SKI-606)]	1.02 ± 0.51	1.08 ± 0.097	0.468 ± 0.55	1.27 ± 0.44	0.963 ± 0.34	0.454 ± 0.39	0.993 ± 0.48	1.048 ± 0.0092	0.382 ± 0.48	0.934 ± 0.06	0.876 ± 0.083	0.985 ± 0.24	0.936 ± 0.018	0.949 ± 0.019	0.993 ± 0.15	0.981 ± 0.039	0.905 ± 0.047	0.952 ± 0.075
CC1(C)CNc2cc(NC(=O)c3cccnc3NCc3ccncc3)ccc21 [Motesanib Diphosphate (AMG-706)]	1.28	1.54	0.93	0.9	0.91	0.752	0.842	1.41	1.07	0.972	0.968	0.958	0.879	0.879	0.919	0.96	0.934	0.946
